No constants are given. Whether binding was seen depends on the method and setting. In cells and extracts the contact can be indirect. Some entries that bind do so weakly or less than the wild type. For some assays here: Where a sequence is shown, tags or fusion partners need not be part of it.

Amino acid sequences for entries named in this document (tags omitted). Residues count along the entry.
UniProt P40189, residues 23-918: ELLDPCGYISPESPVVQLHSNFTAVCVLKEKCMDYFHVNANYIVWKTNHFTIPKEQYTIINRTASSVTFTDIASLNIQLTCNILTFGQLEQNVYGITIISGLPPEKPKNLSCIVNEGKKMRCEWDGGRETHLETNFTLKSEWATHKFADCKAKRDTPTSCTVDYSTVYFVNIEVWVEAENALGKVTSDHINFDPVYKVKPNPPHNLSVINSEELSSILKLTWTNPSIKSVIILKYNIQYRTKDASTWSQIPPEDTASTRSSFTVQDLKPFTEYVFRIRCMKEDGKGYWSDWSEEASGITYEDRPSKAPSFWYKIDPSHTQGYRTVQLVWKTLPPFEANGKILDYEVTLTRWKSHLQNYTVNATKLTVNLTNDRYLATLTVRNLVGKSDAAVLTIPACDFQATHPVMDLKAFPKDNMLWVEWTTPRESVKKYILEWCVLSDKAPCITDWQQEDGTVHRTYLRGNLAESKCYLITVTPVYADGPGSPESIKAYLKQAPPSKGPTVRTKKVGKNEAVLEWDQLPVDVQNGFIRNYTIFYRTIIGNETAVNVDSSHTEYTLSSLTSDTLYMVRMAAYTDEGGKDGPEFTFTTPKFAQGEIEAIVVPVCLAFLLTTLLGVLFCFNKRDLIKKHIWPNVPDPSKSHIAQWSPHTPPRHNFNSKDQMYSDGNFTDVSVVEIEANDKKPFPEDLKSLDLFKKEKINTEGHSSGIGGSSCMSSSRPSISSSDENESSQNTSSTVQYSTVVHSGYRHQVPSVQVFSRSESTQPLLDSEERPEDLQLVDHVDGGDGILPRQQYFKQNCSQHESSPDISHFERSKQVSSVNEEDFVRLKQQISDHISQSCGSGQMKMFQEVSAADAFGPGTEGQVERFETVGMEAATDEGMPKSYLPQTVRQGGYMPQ
UniProt Q00560, residues 23-917: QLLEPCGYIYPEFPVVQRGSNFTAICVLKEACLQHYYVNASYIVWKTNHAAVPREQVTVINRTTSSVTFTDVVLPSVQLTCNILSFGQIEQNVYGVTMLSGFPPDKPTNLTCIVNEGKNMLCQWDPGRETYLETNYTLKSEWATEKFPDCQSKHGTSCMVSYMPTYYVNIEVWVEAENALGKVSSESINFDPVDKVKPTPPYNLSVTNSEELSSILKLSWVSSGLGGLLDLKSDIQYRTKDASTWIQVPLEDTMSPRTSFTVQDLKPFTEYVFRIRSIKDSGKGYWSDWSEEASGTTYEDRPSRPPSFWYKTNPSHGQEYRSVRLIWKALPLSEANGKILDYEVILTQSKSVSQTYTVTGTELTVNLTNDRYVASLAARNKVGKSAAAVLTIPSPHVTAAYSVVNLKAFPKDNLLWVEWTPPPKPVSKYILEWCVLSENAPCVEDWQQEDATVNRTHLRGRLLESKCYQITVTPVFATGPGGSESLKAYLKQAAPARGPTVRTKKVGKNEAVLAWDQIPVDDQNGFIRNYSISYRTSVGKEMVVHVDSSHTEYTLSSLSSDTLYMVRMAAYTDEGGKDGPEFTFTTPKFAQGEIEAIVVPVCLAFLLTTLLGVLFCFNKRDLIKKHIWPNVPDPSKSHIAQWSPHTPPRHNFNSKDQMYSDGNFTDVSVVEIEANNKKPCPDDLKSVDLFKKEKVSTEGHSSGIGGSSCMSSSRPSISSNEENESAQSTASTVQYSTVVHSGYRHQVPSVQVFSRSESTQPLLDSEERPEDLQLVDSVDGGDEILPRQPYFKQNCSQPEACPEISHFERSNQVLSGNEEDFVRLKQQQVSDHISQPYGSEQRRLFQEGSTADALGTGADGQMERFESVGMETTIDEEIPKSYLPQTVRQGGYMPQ

In test [1] the target is T1, FLAG-tagged PROM1 deletion mutant 1-133 (human) (UniProt O43490).
T1 sequence: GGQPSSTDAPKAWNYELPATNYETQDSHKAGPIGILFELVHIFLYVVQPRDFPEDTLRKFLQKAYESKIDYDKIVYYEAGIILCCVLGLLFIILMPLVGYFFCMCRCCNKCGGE
Briefly: co-IP; HEK 293 cells transfected for 48 h with FLAG-tagged PROM1 (full length, deletion mutants or PROM1^GPI-EX1) and GP130-His; reciprocal immunoprecipitation for the full-length pair; NP-40 lysates (25 mM HEPES, 150 mM NaCl, 1% NP-40), 4 °C; also after MβCD cholesterol depletion (interaction not changed).

The target of test [2] is T2, FLAG-tagged PROM1 deletion mutant 1-456 (human) (UniProt O43490).
T2 sequence: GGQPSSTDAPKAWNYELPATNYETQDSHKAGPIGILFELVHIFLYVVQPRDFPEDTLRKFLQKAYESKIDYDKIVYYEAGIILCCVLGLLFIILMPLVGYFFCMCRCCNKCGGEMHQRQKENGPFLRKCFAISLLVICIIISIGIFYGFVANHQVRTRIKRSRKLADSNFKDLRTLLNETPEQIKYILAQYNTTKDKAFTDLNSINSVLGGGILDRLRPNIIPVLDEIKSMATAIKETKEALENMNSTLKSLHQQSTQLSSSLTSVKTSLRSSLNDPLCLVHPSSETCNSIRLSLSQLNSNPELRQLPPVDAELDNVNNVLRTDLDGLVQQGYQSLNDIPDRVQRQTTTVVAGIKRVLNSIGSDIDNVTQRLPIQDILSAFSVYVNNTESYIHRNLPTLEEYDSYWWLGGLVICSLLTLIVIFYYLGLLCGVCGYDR
The test is described as above.

Test [3] addresses T3, FLAG-tagged PROM1 deletion mutant 1-812 (human) (UniProt O43490).
T3 sequence: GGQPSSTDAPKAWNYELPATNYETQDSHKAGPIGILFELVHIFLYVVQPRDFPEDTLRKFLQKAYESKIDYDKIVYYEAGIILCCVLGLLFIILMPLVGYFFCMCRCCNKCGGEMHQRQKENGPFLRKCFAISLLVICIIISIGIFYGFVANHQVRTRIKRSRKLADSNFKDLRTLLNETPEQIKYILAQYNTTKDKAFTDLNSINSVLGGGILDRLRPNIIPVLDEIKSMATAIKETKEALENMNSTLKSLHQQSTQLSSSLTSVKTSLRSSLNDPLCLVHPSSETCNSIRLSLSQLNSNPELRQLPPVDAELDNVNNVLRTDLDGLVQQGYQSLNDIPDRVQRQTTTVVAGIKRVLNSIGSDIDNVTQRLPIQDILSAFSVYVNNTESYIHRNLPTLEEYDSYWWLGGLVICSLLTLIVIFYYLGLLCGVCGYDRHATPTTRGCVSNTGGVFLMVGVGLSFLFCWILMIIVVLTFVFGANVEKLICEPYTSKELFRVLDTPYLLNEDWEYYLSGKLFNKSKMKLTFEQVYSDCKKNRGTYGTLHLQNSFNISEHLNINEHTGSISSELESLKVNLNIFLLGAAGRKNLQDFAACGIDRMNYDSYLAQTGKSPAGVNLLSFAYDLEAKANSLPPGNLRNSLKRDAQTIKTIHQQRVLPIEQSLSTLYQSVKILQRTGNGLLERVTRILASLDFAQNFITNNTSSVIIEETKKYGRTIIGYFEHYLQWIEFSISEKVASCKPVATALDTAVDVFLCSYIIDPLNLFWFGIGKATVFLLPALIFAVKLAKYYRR
Described as above.

Test [4] deals with T4, FLAG-tagged human PROM1 transcript variant 2, full length (1-856) (human) (UniProt O43490).
T4 sequence: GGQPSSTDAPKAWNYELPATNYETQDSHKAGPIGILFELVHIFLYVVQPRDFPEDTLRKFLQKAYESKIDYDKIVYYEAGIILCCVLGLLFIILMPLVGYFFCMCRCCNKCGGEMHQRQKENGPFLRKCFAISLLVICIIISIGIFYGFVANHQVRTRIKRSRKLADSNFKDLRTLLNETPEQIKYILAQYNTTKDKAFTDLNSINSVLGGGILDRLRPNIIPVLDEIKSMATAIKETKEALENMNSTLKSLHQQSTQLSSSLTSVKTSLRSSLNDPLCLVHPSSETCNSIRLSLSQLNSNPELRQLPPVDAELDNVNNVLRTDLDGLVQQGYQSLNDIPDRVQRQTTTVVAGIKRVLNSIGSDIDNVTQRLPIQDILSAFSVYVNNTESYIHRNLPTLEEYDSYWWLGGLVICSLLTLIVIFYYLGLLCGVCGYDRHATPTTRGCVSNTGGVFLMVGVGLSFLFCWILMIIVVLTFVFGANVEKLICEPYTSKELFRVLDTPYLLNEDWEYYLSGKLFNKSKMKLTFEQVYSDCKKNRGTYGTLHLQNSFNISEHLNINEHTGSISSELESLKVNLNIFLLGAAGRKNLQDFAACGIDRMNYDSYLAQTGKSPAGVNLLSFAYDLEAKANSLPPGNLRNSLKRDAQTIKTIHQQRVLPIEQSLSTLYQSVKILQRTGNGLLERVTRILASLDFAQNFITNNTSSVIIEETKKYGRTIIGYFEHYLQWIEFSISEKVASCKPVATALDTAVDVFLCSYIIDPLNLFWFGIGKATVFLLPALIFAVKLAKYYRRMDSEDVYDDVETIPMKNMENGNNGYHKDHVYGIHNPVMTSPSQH
The test is described as above.

In test [5] the target is T5, Prominin-1 (PROM1), endogenous, mouse liver (mouse (endogenous in liver)) (UniProt O54990).
T5 sequence: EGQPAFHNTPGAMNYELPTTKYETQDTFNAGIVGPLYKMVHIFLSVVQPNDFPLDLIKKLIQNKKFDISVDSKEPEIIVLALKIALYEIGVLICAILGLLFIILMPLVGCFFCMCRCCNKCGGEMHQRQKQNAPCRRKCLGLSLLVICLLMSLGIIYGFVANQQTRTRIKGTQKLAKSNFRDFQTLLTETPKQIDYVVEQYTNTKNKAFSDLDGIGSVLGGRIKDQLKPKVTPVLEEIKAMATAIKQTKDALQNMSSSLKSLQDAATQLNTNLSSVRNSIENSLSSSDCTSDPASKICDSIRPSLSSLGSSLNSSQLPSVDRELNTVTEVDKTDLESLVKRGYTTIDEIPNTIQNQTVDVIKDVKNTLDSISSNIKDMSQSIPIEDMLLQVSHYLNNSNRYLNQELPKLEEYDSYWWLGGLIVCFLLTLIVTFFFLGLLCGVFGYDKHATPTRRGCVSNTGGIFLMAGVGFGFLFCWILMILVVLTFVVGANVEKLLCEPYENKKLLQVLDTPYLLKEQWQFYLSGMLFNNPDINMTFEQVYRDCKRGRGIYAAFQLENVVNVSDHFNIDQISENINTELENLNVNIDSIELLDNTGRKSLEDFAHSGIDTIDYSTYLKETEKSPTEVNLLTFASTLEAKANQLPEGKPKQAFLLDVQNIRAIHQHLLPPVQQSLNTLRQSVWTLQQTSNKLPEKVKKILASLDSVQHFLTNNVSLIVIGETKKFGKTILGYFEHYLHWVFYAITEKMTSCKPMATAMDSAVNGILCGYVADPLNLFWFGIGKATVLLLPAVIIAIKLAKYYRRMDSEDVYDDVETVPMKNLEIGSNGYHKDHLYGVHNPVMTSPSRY
The test can be described thus: co-IP; immunoprecipitation with anti-PROM1 or normal IgG from wild-type mouse liver lysate 48 h after PHx; lysis and wash buffer 25 mM HEPES, 150 mM NaCl, 1% NP-40, 10 mM MgCl2, 1 mM EDTA, 2% glycerol; 4 °C; immunoblot for endogenous PROM1 and GP130.

For “His-tagged GP130 (from UniProt P40189 23-918) (receptor)”, the binding entry in test [1], in test [2], in test [3] and in test [4] was “binds” in each case.

Regarding “interleukin-6 signal transducer glycoprotein 130 (GP130), endogenous, mouse liver (from UniProt Q00560 23-917) (receptor)”, in test [5], the binding entry is “binds”.

Values taken from article PMC9585078.
